Experimental data: PubChem BioAssay AID743121 (NCATS, 2013)

Assay: 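Genes whose silencing strengthens cell killing by camptothecin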 (primary screen)
Cell system: MDA-MB-231 cells, a human breast cancer line
Reagents: single siRNA against human genes, 20 nM siRNA (0.8 pmol per well)
Timing: 120 h (drug added 48 h after transfection, read 72 h later)
Conditions: camptothecin 20 nM (about EC30) for 72 h; vehicle 0.1% DMSO in parallel plates
Read-out: 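CellTiter-Glo ATP signal, scaled to control siRNA as percent viability; sensitisation given as log2 of untreated divided by camptothecin-treated viability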
Reading the numbers: log2 vehicle/camptothecin viability: higher = stronger sensitisation to camptothecin; viability with camptothecin and viability without drug: higher = more viable cells
Call rule: 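Active genes have an RSA gene-level p-value below 0.001, computed from the ratios of their separate siRNAs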
This is one part, drawn at random, of about 26,000 reagents. 167 of all reagents (0.63%) were called active. 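Calls are per gene from RSA p-values that are not deposited; an individual active-marked siRNA can sensitise only weakly.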 Reagents against one gene are numbered here.

no.	gene	reagent no.	log2 vehicle/camptothecin viability	viability with camptothecin (% of control)	viability without drug (% of control)	outcome
1	TCF12 (transcription factor 12)	1	-0.0278	97.5	95.6	inactive
2	TCF12 (transcription factor 12)	2	0.35	53	67.6	inactive
3	TCF12 (transcription factor 12)	3	0.172	84.7	95.4	inactive
4	TCF12 (transcription factor 12)	4	0.162	88.9	99.4	inactive
5	CACNG6 (calcium voltage-gated channel auxiliary subunit gamma 6)	1	-0.178	85.1	75.3	inactive
6	CACNG6 (calcium voltage-gated channel auxiliary subunit gamma 6)	2	0.000612	91.2	91.2	inactive
7	CACNG6 (calcium voltage-gated channel auxiliary subunit gamma 6)	3	-0.193	89	77.9	inactive
8	CACNG6 (calcium voltage-gated channel auxiliary subunit gamma 6)	4	-0.208	118	102	inactive
9	SPRTN (SprT-like N-terminal domain)	1	0.12	93.4	101	inactive
10	SPRTN (SprT-like N-terminal domain)	2	-0.103	113	106	inactive
11	SPRTN (SprT-like N-terminal domain)	3	0.067	101	106	inactive
12	ITGA9 (integrin subunit alpha 9)	1	-0.678	77.9	48.7	inactive
13	ITGA9 (integrin subunit alpha 9)	2	-0.183	67.2	59.2	inactive
14	ITGA9 (integrin subunit alpha 9)	3	-0.474	51	36.7	inactive
15	ITGA9 (integrin subunit alpha 9)	4	-0.0971	70.8	66.2	inactive

Continued; the last 3 above are carried over.
no.	gene	reagent no.	log2 vehicle/camptothecin viability	viability with camptothecin (% of control)	viability without drug (% of control)	outcome
13	ITGA9 (integrin subunit alpha 9)	2	-0.183	67.2	59.2	inactive
14	ITGA9 (integrin subunit alpha 9)	3	-0.474	51	36.7	inactive
15	ITGA9 (integrin subunit alpha 9)	4	-0.0971	70.8	66.2	inactive
16	PDE1A (phosphodiesterase 1A)	1	-0.031	94.6	92.6	inactive
17	PDE1A (phosphodiesterase 1A)	2	-0.102	52.8	49.2	inactive
18	PDE1A (phosphodiesterase 1A)	3	-0.543	60	41.2	inactive
19	PDE1A (phosphodiesterase 1A)	4	-0.377	101	77.4	inactive
20	CFLAR (CASP8 and FADD like apoptosis regulator)	1	0.113	68.4	73.9	inactive
21	CFLAR (CASP8 and FADD like apoptosis regulator)	2	-0.707	18.9	11.6	inactive
22	TNFRSF1B (TNF receptor superfamily member 1B)	1	-0.325	65.5	52.3	inactive
23	TNFRSF1B (TNF receptor superfamily member 1B)	2	-0.181	75	66.2	inactive
24	TNFRSF1B (TNF receptor superfamily member 1B)	3	-0.039	97.7	95.1	inactive
25	TNFRSF1B (TNF receptor superfamily member 1B)	4	0.42	24.6	32.9	inactive
26	NRDC (nardilysin convertase)	1	-0.18	61.3	54.1	inactive
27	NRDC (nardilysin convertase)	2	-0.135	76.2	69.4	inactive
28	NRDC (nardilysin convertase)	3	0.532	28.4	41.1	inactive
29	NRDC (nardilysin convertase)	4	-0.0698	80.3	76.5	inactive
